According to the supplement of paper PMC12823440, “Inhibitors supercharge kinase turnover through native proteolytic circuits” (Nature, 2025):
Where a name gives a salt, the structure may show the parent alone. The list shows a part of the results. The calls rarely recur for the same compound in another form.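 Kinases were expressed as nanoluciferase fusions in K562 cells and luminescence was read every 4 h between 2 and 18 h as percent of control, DMSO set to 100% and a positive control to 0%. A time point counts as decreased when the signal drops significantly (2 sigma). The hit call is the authors' own, does not follow from the count of time points alone, and its rule is not shown.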

The compounds below were run against FGR (UniProt P09769) (assay: number of time points (of 5) at which kinase-Nluc abundance scored as decreased, DMSO-normalised (count); higher = more persistent destabilization). Conditions: K562; 2-18 h.
For `CC(C)c1cc(/C=C(\C#N)C(N)=O)cc(C(C)C)c1O` (10 µM), the “number of time points” value was 0. For `CCCNC(=O)c1cn2ncnc(Nc3cc(C(=O)NC4CC4)ccc3C)c2c1C` (10 µM), the “number of time points” value was 0. With `COc1ccc2c(c1OC)OC1c3ccc(O)cc3OCC21` (configuration not stated) [Methylnissolin] (10 µM) the “number of time points” value was 0. `CN(CC(=O)N(Cc1ccc(C2CCCCC2)cc1)c1ccc(C(=O)O)c(O)c1)S(=O)(=O)c1c(F)c(F)c(F)c(F)c1F` (2.5 µM) was tested, and the “number of time points” value was 0. `CCCCNC(=N)NC(=N)N` [Buformin (hydrochloride)] (2.5 µM) was tested, and the “number of time points” value was 0. With `O=C1NCCCc2c1oc1ccc(O)cc21` (10 µM) the “number of time points” value was 0. With `c1ccc(-c2oc3ncnc(NC[C@@H]4CCCO4)c3c2-c2ccccc2)cc1` (2.5 µM) the “number of time points” value was 0. With `CC(=O)Nc1nc2ccc(-c3cnc(C)c(NC(=O)OC4CCCCC4)c3)cc2s1` (10 µM) the “number of time points” value was 0. For `CCOc1ccccc1C=C1C(=O)Nc2ccccc21` (10 µM), the “number of time points” value was 0. In the case of `Cc1ccc(-c2nn(C(C)(C)CNC(=O)c3ccncc3)c3ncnc(N)c23)cc1` (2.5 µM), the “number of time points” value was 0. In the case of `CC[C@H](Nc1ncnc2[nH]cnc12)c1oc2ccccc2c(=O)c1-c1cccc(F)c1` [Tenalisib] (10 µM), the “number of time points” value was 0. In the case of `CC(C)(C)C(=O)N1N=CC[C@H]1c1ccccc1` (10 µM), the “number of time points” value was 0. `COC1(C(=O)N[C@@H](C)c2ccc(-n3cc(F)cn3)nc2)CCC(c2nc(C)cc(Nc3cc(C)[nH]n3)n2)CC1` (stereo partly drawn) [trans-Pralsetinib] (2.5 µM) was tested, and the “number of time points” value was 0. With `CN(C)Cc1cccc(N=C(c2ccccc2)c2c(O)[nH]c3cc(C(N)=O)ccc23)c1` (10 µM) the “number of time points” value was 0. In the case of `COc1nc(-c2ccnc(NC(=O)C3CC3)c2)sc1C(N)=O` [GSK-3β inhibitor 2] (10 µM), the “number of time points” value was 0. `C=C[C@H]1[C@H](O[C@@H]2O[C@H](CO)[C@@H](O)[C@H](O)[C@H]2OC(=O)c2c(O)cc(O)cc2-c2cccc(O)c2)OC=C2C(=O)OCC[C@H]21` [Amarogentin] (10 µM) was tested, and the “number of time points” value was 0. With `COc1cc(C(C)=O)cc(OC)c1O` [Acetosyringone] (10 µM) the “number of time points” value was 0. With `O=C(O)CCc1ccc(NCc2cccc(Oc3ccccc3)c2)cc1` (10 µM) the “number of time points” value was 0. For `Cc1cc(C(C)Nc2ccccc2)c2nc(N3CCOCC3)cc(=O)n2c1` (configuration not stated) (10 µM), the “number of time points” value was 0. In the case of `O=C(O)c1ccc(-c2c[nH]c3ncc(-c4ccccc4)cc23)cc1C1CCCC1` (2.5 µM), the “number of time points” value was 0. With `CC1=C(CC(=O)O)c2cc(F)ccc2/C1=C\c1ccc(C(C)C)cc1` (10 µM) the “number of time points” value was 0. With `COc1cc(N2CCC(N(C)C)CC2)ccc1Nc1ncc(Cl)c(Nc2ccccc2P(C)(C)=O)n1` (2.5 µM) the “number of time points” value was 0. In the case of `Cc1ccc(-c2ccc3c(ccc4sc5c(c43)NC[C@@H](C)NC5=O)n2)cn1` (10 µM), the “number of time points” value was 0. With `Nc1cc(C(F)F)c(-c2nc(N3C4CCC3COC4)nc(N3C4CCC3COC4)n2)cn1` (2.5 µM) the “number of time points” value was 0. In the case of `O=c1cc(-c2ccc(O)c(O)c2O)oc2ccccc12` (10 µM), the “number of time points” value was 0. `CC(C)c1ccc(CC(=O)N2CCN(c3ccc(C#N)nn3)CC2)cc1` (10 µM) was tested, and the “number of time points” value was 0. With `CN(C)Cc1cccc(N=C(c2ccccc2)c2c(O)[nH]c3cc(C(=O)N(C)C)ccc23)c1` (10 µM) the “number of time points” value was 0.
